Values quoted from earlier work, collected in patent US20150177202A1, “ODOR THRESHOLD TEST” (University of Tennessee Research Foundation, priority 2013, published 2015).
At least one compound was matched to its structure with a doubt left.

Settings: cited from earlier work

For `CC1=CCC2CC1C2(C)C` [Pinene, L-α-pinene], the Hydrophobicity is listed as “extremely hydrophobic”.
